{"source": "PubChem BioAssay AID1259424 – University of Nebraska Medical Center, 2018", "aim": "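Seek colon cancer survival genes behaving like KSR1, using a six-gene signature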 (primary screen)", "system": "human HCT116 colon cancer cells", "knock-down reagent": "siRNA pool against human genes, 50 nM", "read-out": "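Six signature mRNAs by branched-DNA multiplex assay, scaled to two housekeeping genes and non-targeting median, log2; matched to mean KSR1 knockdown profile by Pearson correlation and euclidean distance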", "reading the numbers": "mean correlation with KSR1 profile: higher = expression change more like KSR1 knockdown", "note": "The whole screen tested about 14,000 reagents; this is a part drawn at random. 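Higher correlation or smaller distance means closer resemblance to KSR1 loss; control wells, including KSR1 knockdowns, recur on many plates.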 Not all columns of the deposit are shown. Not stated in the record: the time to read-out."}
{"Gene": "MKRN2 (makorin ring finger protein 2)", "mean correlation with KSR1 profile": -0.21}
{"Gene": "DOCK3 (dedicator of cytokinesis 3)", "mean correlation with KSR1 profile": -0.534}
{"Gene": "KRT86 (keratin 86)", "mean correlation with KSR1 profile": 0.0322}
{"Gene": "DGKE (diacylglycerol kinase epsilon)", "mean correlation with KSR1 profile": 0.427}
{"Gene": "INPP4B (inositol polyphosphate-4-phosphatase type II B)", "mean correlation with KSR1 profile": 0.101}
{"Gene": "S100A8 (S100 calcium binding protein A8)", "mean correlation with KSR1 profile": 0.212}
{"Gene": "PPM1F (protein phosphatase, Mg2+/Mn2+ dependent 1F)", "mean correlation with KSR1 profile": -0.598}
{"Gene": "MRPS16 (mitochondrial ribosomal protein S16)", "mean correlation with KSR1 profile": -0.432}
{"Gene": "MRI1 (methylthioribose-1-phosphate isomerase 1)", "mean correlation with KSR1 profile": 0.769}
{"Gene": "RPRD1A (regulation of nuclear pre-mRNA domain containing 1A)", "mean correlation with KSR1 profile": -0.623}
{"Gene": "ATR (ATR checkpoint kinase)", "mean correlation with KSR1 profile": 0.452}
{"Gene": "SRI (sorcin)", "mean correlation with KSR1 profile": 0.169}
{"Gene": "NIPBL (NIPBL cohesin loading factor)", "mean correlation with KSR1 profile": 0.0521}
{"Gene": "ZNF317 (zinc finger protein 317)", "mean correlation with KSR1 profile": 0.272}
{"Gene": "NAPG (NSF attachment protein gamma)", "mean correlation with KSR1 profile": -0.607}
{"Gene": "ENGASE (endo-beta-N-acetylglucosaminidase)", "mean correlation with KSR1 profile": 0.0609}
{"Gene": "SV2B (synaptic vesicle glycoprotein 2B)", "mean correlation with KSR1 profile": -0.26}
{"Gene": "PIP5K1P1", "mean correlation with KSR1 profile": -0.372}
{"Gene": "DNAJC1 (DnaJ heat shock protein family (Hsp40) member C1)", "mean correlation with KSR1 profile": 0.12}
{"Gene": "PKIB (cAMP-dependent protein kinase inhibitor beta)", "mean correlation with KSR1 profile": 0.731}
{"Gene": "RUNX2 (RUNX family transcription factor 2)", "mean correlation with KSR1 profile": -0.0348}
{"Gene": "HTN3 (histatin 3)", "mean correlation with KSR1 profile": -0.397}
{"Gene": "PIGZ", "mean correlation with KSR1 profile": -0.174}
{"Gene": "NOX3 (NADPH oxidase 3)", "mean correlation with KSR1 profile": -0.372}
{"Gene": "GPR35 (G protein-coupled receptor 35)", "mean correlation with KSR1 profile": -0.419}
{"Gene": "STX5 (syntaxin 5)", "mean correlation with KSR1 profile": -0.672}
{"Gene": "MAGEA1 (MAGE family member A1)", "mean correlation with KSR1 profile": -0.427}
{"Gene": "SFRP4 (secreted frizzled related protein 4)", "mean correlation with KSR1 profile": 0.0495}
{"Gene": "PSG3 (pregnancy specific beta-1-glycoprotein 3)", "mean correlation with KSR1 profile": 0.51}
{"Gene": "PHF5A (PHD finger protein 5A)", "mean correlation with KSR1 profile": -0.18}
{"Gene": "MTF2 (metal response element binding transcription factor 2)", "mean correlation with KSR1 profile": 0.407}
{"Gene": "HCRTR2 (hypocretin receptor 2)", "mean correlation with KSR1 profile": 0.175}
{"Gene": "UGT1A5 (UDP glucuronosyltransferase family 1 member A5)", "mean correlation with KSR1 profile": 0.632}
{"Gene": "CIRSR (corepressor of RBPJ and splicing regulator)", "mean correlation with KSR1 profile": -0.709}
{"Gene": "CD4 (CD4 molecule)", "mean correlation with KSR1 profile": -0.436}
{"Gene": "RECQL4 (RecQ like helicase 4)", "mean correlation with KSR1 profile": 0.312}

Targets listed so far whose target name starts with M or m:
{"Gene": "MKRN2 (makorin ring finger protein 2)", "mean correlation with KSR1 profile": -0.21}
{"Gene": "MRPS16 (mitochondrial ribosomal protein S16)", "mean correlation with KSR1 profile": -0.432}
{"Gene": "MRI1 (methylthioribose-1-phosphate isomerase 1)", "mean correlation with KSR1 profile": 0.769}
{"Gene": "MAGEA1 (MAGE family member A1)", "mean correlation with KSR1 profile": -0.427}
{"Gene": "MTF2 (metal response element binding transcription factor 2)", "mean correlation with KSR1 profile": 0.407}
